Results are given in words; binding and its absence hold for the method and conditions named. A result given as binding can be weak or reduced; the word gives no strength. Tags and fused reporters may be left off the sequences shown. For part of these data: Binding seen in cells or lysates may run through a third protein. Blank lines part the entries; values can stand above or below the binder they belong to.
What was measured:
[1] = molecular target: SLG2 (SLENDER GUY2), yeast two-hybrid fusion (rice); assay: two-hybrid; SLG2 as bait against a cDNA library from young panicles; coding sequences in pGADT7 or pGBKT7, co-transformed into Golden Yeast; growth on SD/-Leu-Trp-His-Ade
GST-SLG2 (rice) = assay: pull-down; GST pull-down in vitro, GST-SLG2 or free GST as bait, MBP-WOX11 as prey; immunoblot with anti-GST and anti-MBP
[2] = molecular target: SLG2, BiFC fusion with a half of Venus YFP (rice); assay: split reporter; BiFC with halves of Venus YFP in rice protoplasts; confocal microscopy after 16 h at 28 °C in the dark

binding [1]: binds
B1: WOX11, yeast two-hybrid fusion (protein, UniProt Q0D3I7 1-262)
chain: MDGGHSPDRHAAAAAGEPVRSRWTPKPEQILILESIFNSGMVNPPKDETVRIRKLLERFGAVGDANVFYWFQNRRSRSRRRQRQLQAQAQAAAAAASSGSPPTASSGGLAPGHAGSPASSLGMFAHGAAGYSSSSSSSWPSSPPSVGMMMGDVDYGGGGDDLFAISRQMGYMDGGGGSSSSAAAGQHQQQQLYYSCQPATMTVFINGVATEVPRGPIDLRSMFGQDVMLVHSTGALLPANEYGILLHSLQMGESYFLVTRSS

binding (GST-SLG2 (rice)): binds
B2: MBP-WOX11 (protein, UniProt Q0D3I7 1-262)
chain: MDGGHSPDRHAAAAAGEPVRSRWTPKPEQILILESIFNSGMVNPPKDETVRIRKLLERFGAVGDANVFYWFQNRRSRSRRRQRQLQAQAQAAAAAASSGSPPTASSGGLAPGHAGSPASSLGMFAHGAAGYSSSSSSSWPSSPPSVGMMMGDVDYGGGGDDLFAISRQMGYMDGGGGSSSSAAAGQHQQQQLYYSCQPATMTVFINGVATEVPRGPIDLRSMFGQDVMLVHSTGALLPANEYGILLHSLQMGESYFLVTRSS

binding [2]: binds
B3: WOX11, BiFC fusion with a half of Venus YFP (protein, UniProt Q0D3I7 1-262)
chain: MDGGHSPDRHAAAAAGEPVRSRWTPKPEQILILESIFNSGMVNPPKDETVRIRKLLERFGAVGDANVFYWFQNRRSRSRRRQRQLQAQAQAAAAAASSGSPPTASSGGLAPGHAGSPASSLGMFAHGAAGYSSSSSSSWPSSPPSVGMMMGDVDYGGGGDDLFAISRQMGYMDGGGGSSSSAAAGQHQQQQLYYSCQPATMTVFINGVATEVPRGPIDLRSMFGQDVMLVHSTGALLPANEYGILLHSLQMGESYFLVTRSS

Source: PMC10440987, “SLG2 specifically regulates grain width through WOX11 ‐mediated cell expansion control in rice”
